This is one part of the list.

By UniProt entry, the sequences of proteins in these tests, tags left out.
UniProt Q0JBA9, entry or part of it: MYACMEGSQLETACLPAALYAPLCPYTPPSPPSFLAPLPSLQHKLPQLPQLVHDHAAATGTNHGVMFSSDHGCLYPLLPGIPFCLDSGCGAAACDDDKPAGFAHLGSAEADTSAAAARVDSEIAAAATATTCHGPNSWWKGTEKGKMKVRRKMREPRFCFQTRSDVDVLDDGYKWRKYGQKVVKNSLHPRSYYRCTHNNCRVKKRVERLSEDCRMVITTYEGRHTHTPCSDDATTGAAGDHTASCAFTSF

The target in this test is OsWRKY34 (Oryza sativa, UniProt Q0JBA9 1-250). The test is described as follows: protein-binding microarray (RPBM); PBS, 2% BSA, 51.3 ng/ul salmon testes DNA, 50 uM zinc acetate, 200 nM TF, 25 C, 1 h; high values mean tight binding. To be noted: protein: recombinant; tags: N-terminal polyhistidine and DsRed monomer fusion (pET32a); label: CyDye5-dUTP incorporated in the synthesized complementary strand; 3' TTTTT single-stranded linker to array surface; dsDNA, one strand shown. In a few lines:
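The binding signal is fluorescence intensity per array feature (arbitrary units). Readings came from an Axon 4000B scanner after a washed, 2% BSA-blocked, double-stranded custom Agilent array had been incubated for 1 h at 25 °C with 200 nM protein and 50 µM zinc acetate. The protein was a Ni–NTA-purified transcription factor fused N-terminally to polyhistidine and DsRed, expressed in E. coli BL21-CodonPlus.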
For the sequence “TTTACTCGTACTCCTTTTCATAGCGAGGGGCAAAGTGGGACGGAGTCACCTAGTGCAG”, the binding signal was 9130 fluorescence intensity (a.u.).

Turning to “TTTTCCGGCACCACCAATCGGGCGGGGCGGTGTGTTACAGCGGAGTCACCTAGTGCAG”, the binding signal was 13000 fluorescence intensity (a.u.).

Regarding “TCTTATTTTGACTTTTTGGCACTTGAGTTTATCTCTCTTGCGGAGTCACCTAGTGCAG”, the binding signal was 11500 fluorescence intensity (a.u.).

For “CACTCGCGCCACCCAATTGCACGCATTTACAATTCAATTCCGGAGTCACCTAGTGCAG”, the binding signal was 11400 fluorescence intensity (a.u.).

As to “TTTCTTATTAACACCCTGTTTAATTTTTTATTTCTTATTTCGGAGTCACCTAGTGCAG”, the binding signal was 8480 fluorescence intensity (a.u.).

In the case of “CACTTGGTAATTACTTCTACTATGTCATCCTTATCATAATCGGAGTCACCTAGTGCAG”, the binding signal is 15200 fluorescence intensity (a.u.).

For “CCACCCGCCTCGCCGAATCCGGGCCGTCCATTCCTCCGCTCGGAGTCACCTAGTGCAG”, the binding signal is 11800 fluorescence intensity (a.u.).

“TTTACGTGTTTGGTGTGTTCTACAGTTCGAGATGTGTCGACGGAGTCACCTAGTGCAG”: the binding signal was 9740 fluorescence intensity (a.u.).

Regarding “CCCATCACTTCCCGTACACCTGGCACCCCTACACTCCCGCCGGAGTCACCTAGTGCAG”, the binding signal was 8630 fluorescence intensity (a.u.).

Consider “GCCACGAACGCGCCGTCACCATCGCGCATCACCCCTAGCCCGGAGTCACCTAGTGCAG”, for which the binding signal is 9710 fluorescence intensity (a.u.).

On to “GTCTCCGCCGTAACCTCCTGCGAGCGGCCTCCTCGCCGCTCGGAGTCACCTAGTGCAG”, for which the binding signal was 11500 fluorescence intensity (a.u.).

As for “AAGTCATTCTCCACGGCGTCCTTTTTATTACCACCTCTGTCGGAGTCACCTAGTGCAG”, the binding signal is 12500 fluorescence intensity (a.u.).

Regarding “CCATTTTGATACCTATTCGTCCCGTATTTATGCCCGCTGTCGGAGTCACCTAGTGCAG”, the binding signal is 12000 fluorescence intensity (a.u.).

For the sequence “GGTTGTAATTTGGTAATGCCATTTTTTTTTTTGTTATTGACGGAGTCACCTAGTGCAG”, the binding signal is 11200 fluorescence intensity (a.u.).

For “CTCTCTGTGTGTGTGTTTGCTTTCTTGGGCTGTATCGACTCGGAGTCACCTAGTGCAG”, the binding signal is 11800 fluorescence intensity (a.u.).

In the case of “CCTTTTGTGGTTTATAGTTTCCACCTGACCTGACAAAAAGCGGAGTCACCTAGTGCAG”, the binding signal is 9040 fluorescence intensity (a.u.).

As to “AATCTATCGACGCCACCGATCGACCTACGCCTGCAAATTACGGAGTCACCTAGTGCAG”, the binding signal is 8240 fluorescence intensity (a.u.).

As to “TCCCCACCAACTGCCGCCTCTCGTCGCCTCGCCTCGCCGGCGGAGTCACCTAGTGCAG”, the binding signal is 8040 fluorescence intensity (a.u.).

Take “ATACTCTATCTCTGAGATTCAGATTACTAGTTTTGTTGGACGGAGTCACCTAGTGCAG”: the binding signal is 8660 fluorescence intensity (a.u.).

With “CGCCGGCTTTGGATTTTTCGTTCTGCCTCGCGACCGACGACGGAGTCACCTAGTGCAG”, the binding signal was 10500 fluorescence intensity (a.u.).

Take “CTCCTCATCCTCATCGTCGCCGCCGCCCACGTCGTCTCGCCGGAGTCACCTAGTGCAG”: the binding signal is 9110 fluorescence intensity (a.u.).

As for “TAAACTTGCTCTGATGCGCCCACACGGGGCCACGGCGCGCCGGAGTCACCTAGTGCAG”, the binding signal is 9010 fluorescence intensity (a.u.).

On to “CGAAACTTCGACGTATTCGCCGACTGATCTTTTCGATCTACGGAGTCACCTAGTGCAG”, for which the binding signal is 10100 fluorescence intensity (a.u.).

“AATCGTTGATGAGCCGCGGTCGTTTCCTCTTCTCTTGCGTCGGAGTCACCTAGTGCAG”: the binding signal is 11100 fluorescence intensity (a.u.).

On to “CCCTAGCCGCCACCGTTCACTCTCCGCCTCTCCCTGGTTCCGGAGTCACCTAGTGCAG”, for which the binding signal is 8920 fluorescence intensity (a.u.).

As to “TGAGAGGATCCATGTCTCTTTCTTCTTCATTCATTCTTCCCGGAGTCACCTAGTGCAG”, the binding signal is 12100 fluorescence intensity (a.u.).

Turning to “CCATCACTCTCTCTTCACTCAATGCCGTGGAAATTGGAAGCGGAGTCACCTAGTGCAG”, the binding signal was 8220 fluorescence intensity (a.u.).

On to “CACGCATTCCTCTGCACCTCTGCAGTCTGCACACACGCACCGGAGTCACCTAGTGCAG”, for which the binding signal was 12900 fluorescence intensity (a.u.).

Turning to “TCCTGGTGAGCACATCCTCCGCCACCGCCGCCTGCTCCGACGGAGTCACCTAGTGCAG”, the binding signal was 10400 fluorescence intensity (a.u.).

As for “ACTTGATTTACGAACAGACATTTTTTATTTTTCTACACCACGGAGTCACCTAGTGCAG”, the binding signal was 9230 fluorescence intensity (a.u.).

“ATCTCGCTTCCATTTCTTCGCCATTTGAGCTTTCTTGGAGCGGAGTCACCTAGTGCAG”: the binding signal is 8910 fluorescence intensity (a.u.).

In the case of “GCTTTCTTGCTTCTATTCTGTACCAGGATTCTCCCAACCTCGGAGTCACCTAGTGCAG”, the binding signal is 9130 fluorescence intensity (a.u.).

With “CCCCGCGCCTCAGTTTTTCTCTCACCCACGCGACGGCTCGCGGAGTCACCTAGTGCAG”, the binding signal was 10900 fluorescence intensity (a.u.).

As for “ACCCGTCTCTGTTCATCTCCACATCTTGTCTTCTCGCTGTCGGAGTCACCTAGTGCAG”, the binding signal was 18100 fluorescence intensity (a.u.).

Take “GCAAAACTAGCATCTTTATTTATTGGGGCATTGGTTATTACGGAGTCACCTAGTGCAG”: the binding signal was 11000 fluorescence intensity (a.u.).

For the sequence “GATATGGTAATTTAGTGTCCATTATGGTGTTTCTTAATTGCGGAGTCACCTAGTGCAG”, the binding signal is 8100 fluorescence intensity (a.u.).

Regarding “TCCTAACCAAACGGGCCGTGATCCCTTTTGCTTCTCTGATCGGAGTCACCTAGTGCAG”, the binding signal is 9300 fluorescence intensity (a.u.).

For “TGCATCACAAACACTTGTCGTCGTCTTCAATGCCACCAGCCGGAGTCACCTAGTGCAG”, the binding signal is 8190 fluorescence intensity (a.u.).

Regarding “CCTCTTCGAAGCCGTGAAATCTCAGCCGTCCATCCATGATCGGAGTCACCTAGTGCAG”, the binding signal was 9040 fluorescence intensity (a.u.).

Regarding “TCTTACACAATATGTTGTCTCCTGCTGCTTCATATGTTCTCGGAGTCACCTAGTGCAG”, the binding signal was 14200 fluorescence intensity (a.u.).

Consider “TAGATAATTTTGTATGGGTTGCTAGCCGCGCAATTGCGCGCGGAGTCACCTAGTGCAG”, for which the binding signal was 8420 fluorescence intensity (a.u.).

Consider “ATTTACCTTTACACGACACTTCAGTTGGTTTGAATGCTTTCGGAGTCACCTAGTGCAG”, for which the binding signal is 8720 fluorescence intensity (a.u.).

For the origin of these results see publication PMC7819943, “Rice protein-binding microarrays: a tool to detect cis-acting elements near promoter regions in rice”.
